Where two headings read alike, the source gives them in different places. Results are given in words; binding and its absence hold for the method and conditions named. Binding seen in cells or lysates may run through a third protein. Binding can be weak; no strength is given. Where a sequence is shown, tags or fusion partners need not be part of it.
How the values were obtained:
Test in all cases: pull-down
[1] = target: T1, His-tagged DacA (pET28a plasmid, ER2566) (Escherichia coli) (UniProt P0AEB2)
T1 sequence: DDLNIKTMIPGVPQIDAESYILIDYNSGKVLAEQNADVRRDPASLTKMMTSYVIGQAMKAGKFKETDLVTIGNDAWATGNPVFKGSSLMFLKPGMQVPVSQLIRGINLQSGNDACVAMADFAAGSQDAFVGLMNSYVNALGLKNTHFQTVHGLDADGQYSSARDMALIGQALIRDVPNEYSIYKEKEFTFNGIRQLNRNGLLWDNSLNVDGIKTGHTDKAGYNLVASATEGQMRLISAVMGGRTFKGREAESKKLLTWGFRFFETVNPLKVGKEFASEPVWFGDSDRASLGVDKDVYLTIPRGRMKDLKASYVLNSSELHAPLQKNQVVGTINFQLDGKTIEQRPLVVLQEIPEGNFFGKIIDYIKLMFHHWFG

Sequences of proteins named here, by UniProt entry; tags and fusion partners are left off. A change or cut given only in a name is not applied to a line headed by its entry.
UniProt P02919: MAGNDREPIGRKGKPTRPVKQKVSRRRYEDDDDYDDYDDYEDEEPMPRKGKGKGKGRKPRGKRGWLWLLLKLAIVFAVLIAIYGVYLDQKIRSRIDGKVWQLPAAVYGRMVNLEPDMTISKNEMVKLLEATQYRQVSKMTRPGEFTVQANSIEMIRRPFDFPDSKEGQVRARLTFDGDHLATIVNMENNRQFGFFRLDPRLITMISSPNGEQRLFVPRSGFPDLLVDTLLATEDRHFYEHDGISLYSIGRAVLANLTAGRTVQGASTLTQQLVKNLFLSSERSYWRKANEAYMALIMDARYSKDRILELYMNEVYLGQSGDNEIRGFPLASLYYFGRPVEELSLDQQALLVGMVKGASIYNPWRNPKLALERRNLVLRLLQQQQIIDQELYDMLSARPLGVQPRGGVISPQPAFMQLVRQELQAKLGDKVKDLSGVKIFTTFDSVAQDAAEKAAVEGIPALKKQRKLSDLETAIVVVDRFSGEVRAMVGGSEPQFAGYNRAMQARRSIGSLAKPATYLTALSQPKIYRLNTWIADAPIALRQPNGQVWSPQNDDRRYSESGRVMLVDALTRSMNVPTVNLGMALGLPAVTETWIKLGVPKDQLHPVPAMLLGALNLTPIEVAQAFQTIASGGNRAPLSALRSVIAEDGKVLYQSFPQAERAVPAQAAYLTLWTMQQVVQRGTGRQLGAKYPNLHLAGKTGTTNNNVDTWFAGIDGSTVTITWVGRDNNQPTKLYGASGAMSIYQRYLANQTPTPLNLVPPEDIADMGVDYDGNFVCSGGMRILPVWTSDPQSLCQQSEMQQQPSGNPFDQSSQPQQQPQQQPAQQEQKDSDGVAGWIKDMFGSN

[2] = target: T2, His-tagged DacC (pET28a plasmid, ER2566) (Escherichia coli) (UniProt P08506)
T2 sequence: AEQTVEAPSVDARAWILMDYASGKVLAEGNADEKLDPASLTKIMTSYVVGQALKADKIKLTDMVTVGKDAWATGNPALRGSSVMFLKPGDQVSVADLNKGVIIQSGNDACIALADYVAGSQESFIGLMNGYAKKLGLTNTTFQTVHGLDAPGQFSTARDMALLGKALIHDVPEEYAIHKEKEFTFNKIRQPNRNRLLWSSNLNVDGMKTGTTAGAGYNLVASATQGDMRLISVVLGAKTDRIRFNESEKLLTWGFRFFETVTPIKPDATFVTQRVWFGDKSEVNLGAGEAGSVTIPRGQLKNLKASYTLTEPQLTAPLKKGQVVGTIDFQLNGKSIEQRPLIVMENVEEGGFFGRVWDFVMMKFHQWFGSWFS

[3] = target: T1, His-tagged DacA (pET28a plasmid, ER2566) (Escherichia coli); remark: listed apart in the source
[4] = target: T2, His-tagged DacC (pET28a plasmid, ER2566) (Escherichia coli); remark: listed apart in the source

Measured: binding

non-tagged PBP1b (pET24a plasmid, ER2566) (from UniProt P02919) (enzyme)
binds: all assays above
